Test results published in the M2OR odorant receptor database.
Positions count from the first letter of the chain named. This is a selection; strong and weak results do not stand in their true shares. Calls are pooled over several reports, among them a noisy single-well screen. The list shows a part of the results. The list shows a part of the results.

Chains of the proteins cited; added tags and fusions are not shown. A line that says so, or that is headed by a name, gives the form on record, which may keep a tag or linker.
OR2W1, as listed by the source: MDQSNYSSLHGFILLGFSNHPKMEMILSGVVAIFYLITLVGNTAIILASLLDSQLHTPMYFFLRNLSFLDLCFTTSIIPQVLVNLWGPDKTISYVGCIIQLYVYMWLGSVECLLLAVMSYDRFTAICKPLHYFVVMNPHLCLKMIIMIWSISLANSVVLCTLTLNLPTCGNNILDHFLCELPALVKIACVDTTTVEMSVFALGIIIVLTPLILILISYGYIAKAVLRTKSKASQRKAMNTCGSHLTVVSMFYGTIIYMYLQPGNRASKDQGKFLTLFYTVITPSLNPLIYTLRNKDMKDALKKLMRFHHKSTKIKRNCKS

What was measured:
Conditions in all cases: stereoisomer not certain
OR2W1 [1] = system: T1, OR2W1
T1 sequence (whole entry): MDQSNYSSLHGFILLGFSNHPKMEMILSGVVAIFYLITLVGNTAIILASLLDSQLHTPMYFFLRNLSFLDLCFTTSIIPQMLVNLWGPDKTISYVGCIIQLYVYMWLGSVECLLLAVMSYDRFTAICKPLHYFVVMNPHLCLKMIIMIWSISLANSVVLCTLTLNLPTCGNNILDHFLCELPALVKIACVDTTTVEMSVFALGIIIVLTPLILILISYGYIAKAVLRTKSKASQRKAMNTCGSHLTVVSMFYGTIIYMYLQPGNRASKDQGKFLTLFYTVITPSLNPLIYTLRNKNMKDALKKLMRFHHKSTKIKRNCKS
Procedure, shortened: (§1)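 Assay methods differ from source to source, frequently being transient luciferase assays in mammalian cell lines. For each receptor–molecule pair, the label responsive (active) applies when the original authors judged the measured signal statistically different from baseline, and non-responsive (inactive) applies otherwise.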

OR2W1 [2] = system: T2, OR2W1; remark: listed apart in the source
T2 sequence (whole entry): T1 sequence (whole entry) with M81V, N296D
Procedure, shortened: as §1

OR2W3 (Homo sapiens) = molecular target: T3, OR2W3 (Homo sapiens) (UniProt Q7Z3T1)
T3 sequence (whole entry): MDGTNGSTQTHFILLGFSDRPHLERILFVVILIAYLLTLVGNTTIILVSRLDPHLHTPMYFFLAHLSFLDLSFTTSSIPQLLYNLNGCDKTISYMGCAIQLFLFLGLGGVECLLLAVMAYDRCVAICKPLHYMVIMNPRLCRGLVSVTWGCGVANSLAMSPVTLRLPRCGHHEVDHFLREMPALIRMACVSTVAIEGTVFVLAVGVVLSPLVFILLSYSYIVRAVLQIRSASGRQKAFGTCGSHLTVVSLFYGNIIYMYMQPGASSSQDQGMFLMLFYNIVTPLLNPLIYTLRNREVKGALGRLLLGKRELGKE
Procedure, shortened: as §1

OR2W3 = system: T4, OR2W3
T4 sequence (whole entry): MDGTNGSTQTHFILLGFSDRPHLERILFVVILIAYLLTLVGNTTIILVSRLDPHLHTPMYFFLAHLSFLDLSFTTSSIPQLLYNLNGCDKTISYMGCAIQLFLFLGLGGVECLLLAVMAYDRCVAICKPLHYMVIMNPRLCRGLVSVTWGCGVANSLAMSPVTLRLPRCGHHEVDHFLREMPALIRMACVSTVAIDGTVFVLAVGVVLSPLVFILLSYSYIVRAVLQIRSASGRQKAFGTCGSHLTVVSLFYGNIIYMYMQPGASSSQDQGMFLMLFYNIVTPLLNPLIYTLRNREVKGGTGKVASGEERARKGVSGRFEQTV
Procedure, shortened: as §1

OR2W5P (Homo sapiens) = molecular target: T5, OR2W5P (Homo sapiens) (UniProt A6NFC9)
T5 sequence (whole entry): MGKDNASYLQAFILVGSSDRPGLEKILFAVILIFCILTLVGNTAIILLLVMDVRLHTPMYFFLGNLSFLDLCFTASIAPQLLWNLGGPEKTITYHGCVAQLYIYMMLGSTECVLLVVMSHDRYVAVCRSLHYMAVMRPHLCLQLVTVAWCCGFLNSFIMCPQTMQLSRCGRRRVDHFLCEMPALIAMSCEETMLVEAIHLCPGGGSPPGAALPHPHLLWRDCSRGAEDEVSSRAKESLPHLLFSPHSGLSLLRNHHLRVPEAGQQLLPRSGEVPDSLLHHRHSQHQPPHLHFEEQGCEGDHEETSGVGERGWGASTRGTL
Procedure, shortened: as §1

OR2Y1 = system: T6, OR2Y1
T6 sequence (whole entry): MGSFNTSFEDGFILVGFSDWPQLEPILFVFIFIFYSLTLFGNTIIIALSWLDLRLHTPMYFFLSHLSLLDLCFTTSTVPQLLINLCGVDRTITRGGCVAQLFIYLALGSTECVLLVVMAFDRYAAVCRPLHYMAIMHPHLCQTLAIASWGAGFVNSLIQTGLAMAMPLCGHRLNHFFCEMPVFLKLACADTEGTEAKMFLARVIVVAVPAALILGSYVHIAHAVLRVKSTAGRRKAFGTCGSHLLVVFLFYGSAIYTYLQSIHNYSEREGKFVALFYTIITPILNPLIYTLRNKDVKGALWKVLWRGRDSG
Procedure, shortened: as §1

OR2Z1 (Homo sapiens) = molecular target: T7, OR2Z1 (Homo sapiens) (UniProt Q8NG97)
T7 sequence (whole entry): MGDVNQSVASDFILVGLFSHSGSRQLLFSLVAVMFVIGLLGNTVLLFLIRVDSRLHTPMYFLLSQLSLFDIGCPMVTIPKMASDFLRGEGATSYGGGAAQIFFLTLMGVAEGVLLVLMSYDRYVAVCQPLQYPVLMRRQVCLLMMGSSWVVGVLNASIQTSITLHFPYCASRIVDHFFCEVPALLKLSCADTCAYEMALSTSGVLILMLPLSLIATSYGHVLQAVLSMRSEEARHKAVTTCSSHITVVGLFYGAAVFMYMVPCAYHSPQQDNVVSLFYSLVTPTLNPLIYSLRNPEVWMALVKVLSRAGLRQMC
Procedure, shortened: as §1

OR3A1 (Homo sapiens) = molecular target: T8, OR3A1 (Homo sapiens) (UniProt P47881)
T8 sequence (whole entry): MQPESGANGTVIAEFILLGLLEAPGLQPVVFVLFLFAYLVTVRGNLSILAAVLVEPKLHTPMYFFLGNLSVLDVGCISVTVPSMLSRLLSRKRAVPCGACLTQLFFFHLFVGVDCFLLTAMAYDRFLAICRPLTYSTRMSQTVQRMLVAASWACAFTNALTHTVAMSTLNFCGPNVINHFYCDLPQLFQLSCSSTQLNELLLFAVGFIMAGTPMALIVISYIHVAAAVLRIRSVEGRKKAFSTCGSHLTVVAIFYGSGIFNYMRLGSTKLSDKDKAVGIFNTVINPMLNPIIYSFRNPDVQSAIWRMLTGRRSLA
Procedure, shortened: as §1

OR3A2 (Homo sapiens) = molecular target: T9, OR3A2 (Homo sapiens) (UniProt P47893)
T9 sequence (whole entry): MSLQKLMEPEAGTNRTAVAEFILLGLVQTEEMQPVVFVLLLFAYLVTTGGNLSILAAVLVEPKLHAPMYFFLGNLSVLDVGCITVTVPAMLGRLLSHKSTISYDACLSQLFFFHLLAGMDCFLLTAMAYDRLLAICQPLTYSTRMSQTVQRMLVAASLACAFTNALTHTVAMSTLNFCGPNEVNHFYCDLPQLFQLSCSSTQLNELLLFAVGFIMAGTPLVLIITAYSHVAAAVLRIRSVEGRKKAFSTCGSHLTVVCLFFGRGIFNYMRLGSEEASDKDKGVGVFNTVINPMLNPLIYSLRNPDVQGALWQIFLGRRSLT
Procedure, shortened: as §1

OR3A3 = system: T10, OR3A3
T10 sequence (whole entry): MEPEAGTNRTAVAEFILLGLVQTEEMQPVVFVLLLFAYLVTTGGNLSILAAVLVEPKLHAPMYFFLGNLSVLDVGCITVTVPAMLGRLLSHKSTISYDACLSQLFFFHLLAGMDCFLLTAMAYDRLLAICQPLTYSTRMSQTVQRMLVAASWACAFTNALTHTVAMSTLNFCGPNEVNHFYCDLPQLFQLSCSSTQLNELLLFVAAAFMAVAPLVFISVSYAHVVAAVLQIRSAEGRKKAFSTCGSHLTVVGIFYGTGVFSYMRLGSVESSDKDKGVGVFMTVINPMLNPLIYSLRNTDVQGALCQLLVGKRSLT
Procedure, shortened: as §1

OR3A4 = system: T11, OR3A4
T11 sequence (whole entry): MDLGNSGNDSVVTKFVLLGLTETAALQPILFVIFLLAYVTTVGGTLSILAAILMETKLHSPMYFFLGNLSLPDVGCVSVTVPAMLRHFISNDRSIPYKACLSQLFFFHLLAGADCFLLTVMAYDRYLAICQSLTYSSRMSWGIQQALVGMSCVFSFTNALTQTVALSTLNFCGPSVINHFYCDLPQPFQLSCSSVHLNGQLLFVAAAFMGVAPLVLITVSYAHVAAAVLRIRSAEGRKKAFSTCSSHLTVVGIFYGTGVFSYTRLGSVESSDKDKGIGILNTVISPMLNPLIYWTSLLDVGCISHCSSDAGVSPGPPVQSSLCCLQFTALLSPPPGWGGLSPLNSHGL
Procedure, shortened: as §1

OR4A16 (Homo sapiens) = molecular target: T12, OR4A16 (Homo sapiens) (UniProt Q8NH70)
T12 sequence (whole entry): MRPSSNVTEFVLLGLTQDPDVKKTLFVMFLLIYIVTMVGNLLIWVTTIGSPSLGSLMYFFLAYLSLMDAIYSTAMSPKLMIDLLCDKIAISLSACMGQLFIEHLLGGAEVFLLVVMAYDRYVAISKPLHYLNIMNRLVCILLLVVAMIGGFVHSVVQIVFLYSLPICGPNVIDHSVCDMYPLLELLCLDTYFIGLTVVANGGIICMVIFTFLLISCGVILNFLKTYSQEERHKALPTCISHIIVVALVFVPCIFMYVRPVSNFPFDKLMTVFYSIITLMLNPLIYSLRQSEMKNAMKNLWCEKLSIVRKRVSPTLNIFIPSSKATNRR
Procedure, shortened: as §1

OR4A4P (Homo sapiens) = molecular target: T13, OR4A4P (Homo sapiens) (UniProt Q8NGN8)
T13 sequence (whole entry): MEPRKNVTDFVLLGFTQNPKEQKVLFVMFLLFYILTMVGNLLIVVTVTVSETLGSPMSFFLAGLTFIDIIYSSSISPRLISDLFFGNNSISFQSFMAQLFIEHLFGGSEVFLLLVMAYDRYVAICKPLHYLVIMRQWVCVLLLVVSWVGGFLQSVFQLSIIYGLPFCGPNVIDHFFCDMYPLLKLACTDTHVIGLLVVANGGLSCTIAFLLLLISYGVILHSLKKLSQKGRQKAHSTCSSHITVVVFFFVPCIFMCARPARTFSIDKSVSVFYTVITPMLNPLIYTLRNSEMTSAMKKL
Procedure, shortened: as §1

OR4A5 (Homo sapiens) = molecular target: T14, OR4A5 (Homo sapiens) (UniProt Q8NH83)
T14 sequence (whole entry): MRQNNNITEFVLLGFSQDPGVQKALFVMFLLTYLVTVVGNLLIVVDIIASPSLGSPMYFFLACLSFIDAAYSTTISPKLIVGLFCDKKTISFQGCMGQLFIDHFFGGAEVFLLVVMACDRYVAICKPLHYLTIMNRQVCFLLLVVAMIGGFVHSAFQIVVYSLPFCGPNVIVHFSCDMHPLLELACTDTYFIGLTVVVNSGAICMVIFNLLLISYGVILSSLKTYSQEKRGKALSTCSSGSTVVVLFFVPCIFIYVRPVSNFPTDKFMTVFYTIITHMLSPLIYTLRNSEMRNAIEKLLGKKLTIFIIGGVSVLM
Procedure, shortened: as §1

OR4A5 = system: T15, OR4A5
T15 sequence (whole entry): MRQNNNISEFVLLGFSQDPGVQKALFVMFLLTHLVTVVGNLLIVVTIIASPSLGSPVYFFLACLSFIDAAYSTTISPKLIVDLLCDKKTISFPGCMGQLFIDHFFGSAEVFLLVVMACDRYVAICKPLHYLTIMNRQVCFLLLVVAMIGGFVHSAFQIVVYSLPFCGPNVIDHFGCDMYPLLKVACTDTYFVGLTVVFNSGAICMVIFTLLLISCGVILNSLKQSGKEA
Procedure, shortened: as §1

OR4B1 (Homo sapiens) = molecular target: T16, OR4B1 (Homo sapiens) (UniProt Q8NGF8)
T16 sequence (whole entry): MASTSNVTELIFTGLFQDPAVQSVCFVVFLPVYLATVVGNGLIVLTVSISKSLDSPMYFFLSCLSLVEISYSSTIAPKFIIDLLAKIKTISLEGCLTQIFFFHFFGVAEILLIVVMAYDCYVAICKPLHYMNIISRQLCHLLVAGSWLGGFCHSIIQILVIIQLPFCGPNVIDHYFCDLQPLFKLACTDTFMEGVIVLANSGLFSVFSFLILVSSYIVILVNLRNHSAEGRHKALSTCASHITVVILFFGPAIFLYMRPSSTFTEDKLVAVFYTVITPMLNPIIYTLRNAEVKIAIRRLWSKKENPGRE
Procedure, shortened: as §1

OR4C11 (Homo sapiens) = molecular target: T17, OR4C11 (Homo sapiens) (UniProt Q6IEV9)
T17 sequence (whole entry): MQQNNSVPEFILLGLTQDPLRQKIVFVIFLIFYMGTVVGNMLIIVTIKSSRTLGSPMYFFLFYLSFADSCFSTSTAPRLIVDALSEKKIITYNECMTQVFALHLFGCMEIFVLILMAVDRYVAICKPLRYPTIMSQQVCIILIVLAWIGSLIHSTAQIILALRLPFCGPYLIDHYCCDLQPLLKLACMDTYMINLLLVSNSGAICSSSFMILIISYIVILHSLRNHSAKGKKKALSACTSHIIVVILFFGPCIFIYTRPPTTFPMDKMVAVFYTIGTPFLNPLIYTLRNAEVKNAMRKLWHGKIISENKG
Procedure, shortened: as §1

Measured: odorant receptor agonist call

CCCCCCCCC=O
active: OR2W1 [1] | OR2W1 [2]
inactive: OR2W3 (Homo sapiens)

CC1CCC(C(C)C)C(O)C1 (stereo not given)
active: OR2W3 | OR4A16 (Homo sapiens) | OR4A4P (Homo sapiens)
not listed: OR2W1 [2]
inactive: all other assays above

CC12CCC(CC1)C(C)(C)O2
active: OR2W1 [1] | OR2W1 [2]
not listed: OR2W3 (Homo sapiens)
inactive: all other assays above
